Experiment [1] concerns the target T1, GFP tagged wild type XB130 (human) (UniProt Q8N4X5).
T1 sequence: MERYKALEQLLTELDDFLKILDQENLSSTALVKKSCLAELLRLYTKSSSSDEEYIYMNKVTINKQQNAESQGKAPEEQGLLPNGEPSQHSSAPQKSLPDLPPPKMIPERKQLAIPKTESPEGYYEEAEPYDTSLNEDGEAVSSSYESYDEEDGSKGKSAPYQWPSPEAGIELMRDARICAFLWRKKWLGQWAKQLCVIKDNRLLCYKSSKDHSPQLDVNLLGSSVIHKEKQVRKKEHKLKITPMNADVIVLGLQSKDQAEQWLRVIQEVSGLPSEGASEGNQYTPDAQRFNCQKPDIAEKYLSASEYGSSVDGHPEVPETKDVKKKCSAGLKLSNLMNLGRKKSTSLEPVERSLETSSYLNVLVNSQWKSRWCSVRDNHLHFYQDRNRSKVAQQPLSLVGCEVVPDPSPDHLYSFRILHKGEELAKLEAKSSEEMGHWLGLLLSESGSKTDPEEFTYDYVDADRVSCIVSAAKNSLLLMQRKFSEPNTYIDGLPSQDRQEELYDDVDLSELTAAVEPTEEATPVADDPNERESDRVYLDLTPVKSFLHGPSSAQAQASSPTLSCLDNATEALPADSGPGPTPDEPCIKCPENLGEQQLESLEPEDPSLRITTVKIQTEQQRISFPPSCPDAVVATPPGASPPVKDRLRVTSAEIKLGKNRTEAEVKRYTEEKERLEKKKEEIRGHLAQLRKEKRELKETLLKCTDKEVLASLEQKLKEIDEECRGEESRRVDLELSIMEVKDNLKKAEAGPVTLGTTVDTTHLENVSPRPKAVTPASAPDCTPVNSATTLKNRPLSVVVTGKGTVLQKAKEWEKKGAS
The experiment is described as follows: co-IP; lysates (RIPA buffer, diluted in NET buffer) of BEAS2B cells stably expressing GFP-XB130, treated with 0.1 uM NNK up to 30 min; incubated overnight at 4°C with anti-cortactin or anti-XB130 antibody, protein G-sepharose, western blot. A general note: Immunoblotting shows a protein as a band on a membrane.

Sequences of proteins named here, by UniProt entry; tags and fusion partners are left off.
UniProt Q14247: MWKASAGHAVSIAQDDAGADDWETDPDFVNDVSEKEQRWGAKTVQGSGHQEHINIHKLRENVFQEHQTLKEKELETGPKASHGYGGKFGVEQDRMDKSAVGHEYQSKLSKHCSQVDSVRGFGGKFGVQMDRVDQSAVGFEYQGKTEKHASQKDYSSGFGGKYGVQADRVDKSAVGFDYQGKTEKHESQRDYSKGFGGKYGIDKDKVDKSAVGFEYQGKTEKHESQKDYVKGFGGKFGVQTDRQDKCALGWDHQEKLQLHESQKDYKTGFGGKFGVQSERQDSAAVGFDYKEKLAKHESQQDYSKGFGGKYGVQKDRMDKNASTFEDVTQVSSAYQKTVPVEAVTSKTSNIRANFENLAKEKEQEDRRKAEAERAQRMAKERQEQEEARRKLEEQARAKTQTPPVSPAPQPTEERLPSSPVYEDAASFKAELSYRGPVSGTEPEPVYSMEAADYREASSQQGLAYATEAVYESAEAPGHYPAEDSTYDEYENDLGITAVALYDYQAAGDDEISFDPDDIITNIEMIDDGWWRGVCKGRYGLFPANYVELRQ

For experiment [2], the target named is cortactin (human (endogenous in BEAS2B)) (UniProt Q14247). Described as above.

These are yes or no findings as the source states them, for the method shown. Binding seen in cells or lysates may run through a third protein. Some binding calls cover weakened binding; strength is not graded here. Sequences can lack the tags named with a protein.

In the case of cortactin (from UniProt Q14247 1-550), the binding entry in experiment [1] is “binds”.

B1: GFP tagged wild type XB130 (protein, UniProt Q8N4X5 1-818)
chain: T1 sequence
As to B1, in experiment [2], the binding result is recorded as “binds”.

The values are drawn from paper PMC4627235.
